Measurements reported in US8216619B2, “Stable and bioavailable compositions of isomers of carotenoids for skin and hair” (Indena S.p.A., priority 2006, dated 2012).
Some results were stated once for a whole list of compounds, not compound by compound. For at least one compound, name, drawing or mass did not settle the structure.

test: Stability of pure lycopene isomers in n-hexane during storage at room temperature; type: physicochemical; conditions: after 33 day storage in n-hexane at room temperature in the absence of light
Method: Pure 5-Z, 9-Z, 13-Z and all-E lycopene were isolated from isomerised tomato oleoresin (submitted to 1 hour heating), by collecting the fractions containing the corresponding peaks after HPLC separation (see below the experimental conditions). Peaks were collected during two consecutive HPLC runs and the corresponding fractions were pooled.
Lycopene isomer profiles were determined by normal phase HPLC according to the method described by Schierle et al. (Schierle, J., Bretzel, W., Bühler, I., Faccin, N., Hess, D., Steiner, K., Schuep, W. (1997). Food. Chem. 59: 459). Samples of isomerized oleoresins were dissolved in n-hexane containing 50 ppm BHT and spun at maximum speed in an Eppendorf Lab centrifuge. The resulting supernatants were immediately analyzed by HPLC. The HPLC system used was a 1100 series Hewlett-Packard model equipped with an ultraviolet-visible photodiode array detector. Data were simultaneously acquired at 470 nm, 464 nm, 346 nm and 294 nm. Samples (10 μL) were separated using a combination of three Nucleosil 300-5 columns (4 mm internal diameter×250 mm length, Macherey-Nagel). […] Flow rate was 0.8 mL/min. Lycopene Z-isomers were identified according to literature data.
Amounts of lycopene isomers were calculated based on surface areas of the HPLC peaks using the same extinction coefficient as the all-E lycopene. Therefore, the lycopene concentration in products containing Z-isomers is slightly underestimated since it is recognized that the extinction coefficients of Z-isomers are lower than that of the all-E isomer.
Stability of lycopene isomers was investigated both in n-hexane and in a tomato oleoresin isomerized by 4 hour heating in ethyl acetate. For this purpose, pure lycopene isomers were stored for 33 days in n-hexane at room temperature and in the absence of light, and the isomerized tomato oleoresin was kept for 55 days at room temperature in the absence of light. Total lycopene concentration and lycopene isomer profiles were measured at various time intervals during the storage.

Row | SMILES | fraction of the isomer transformed / converted into other isomers
1 | CC(C)=CCC/C(C)=C/C=C/C(C)=C\C=C\C(C)=C\C=C\C=C(C)\C=C\C=C(C)\C=C\C=C(/C)CCC=C(C)C [9-Z lycopene] | less than 50%
2 | CC(C)=CCC\C(C)=C/C=C/C(C)=C/C=C/C(C)=C/C=C/C=C(C)/C=C/C=C(C)/C=C/C=C(\C)CCC=C(C)C [5-Z lycopene] | less than 50%
3 | CC(C)=CCC/C(C)=C/C=C/C(C)=C/C=C/C(C)=C/C=C/C=C(C)/C=C/C=C(C)/C=C/C=C(\C)CCC=C(C)C [all-E lycopene] | less than 50%
